# Data as given in article PMC5830979, “Preclinical In Vitro and In Vivo Evaluation of [^18F]FE@SUPPY for Cancer PET Imaging: Limitations of a Xenograft Model for Colorectal Cancer” (Contrast Media & Molecular Imaging, 2018).
# Tested on: HT-29 xenografts
# Test: µPET imaging of HT-29 / CHO-K1 xenograft-bearing CB17-SCID mice
# Assay type: in vivo
# Details: blocking agent 2 mg/kg BW retroorbitally 2 min prior to tracer, n = 3 per group
# Description: After 10 to 14 days upon arrival, CB17-SCID mice were injected subcutaneously with 2 × 10^6 HT-29 cells into one flank and 2 × 10^6 CHO-K1 cells in the opposite flank (n = 9). Body weight and tumor development were monitored every second day by caliper measurement. The respective tumor volume was calculated according to the following equation: tumor volume (mm^3) = d^2 × D/2 (where d is the shortest diameter and D the longest diameter). Animals were subjected to μPET imaging 10 days after inoculation, when tumors reached a volume of at least 300 mm^3. Tumor volume never exceeded 1 cm^3.
# Xenograft-bearing CB17-SCID mice were anesthetized using isoflurane (2.5%) mixed with oxygen (1.5 L/min) to avoid movement during the imaging. Blocking agents (2 mg/kg BW FE@SUPPY or MRS1523) or the respective vehicle control (Tween-20/EtOH/0.9% physiological saline 1/9/90) was administered retroorbitally 2 min prior to the radiotracer administration (n = 3 per group). Subsequently, the animals received another retroorbital injection of 17.42 ± 4.5 MBq [^18F]FE@SUPPY into the venous plexus of the opposite eye. […] Vital parameters (respiration, body temperature) were continuously monitored using a dedicated monitoring unit (bioVet; m2m imaging, Cleveland, OH, USA) to ensure the depth of anesthesia and wellbeing of the animals.
row,Compound,blocking of tumor uptake of [18F]FE@SUPPY
1,"CCCOC(=O)c1c(-c2ccccc2)nc(CC)c(C(=O)SCC)c1CCC [MRS1523, reference compound]",provided the same outcome
2,"CCSC(=O)c1c(CC)nc(-c2ccccc2)c(C(=O)OCC[18F])c1CC [[^18F]FE@SUPPY, 5-(2-[18F]fluoroethyl) 2,4-diethyl-3-(ethylsulfanylcarbonyl)-6-phenylpyridine-5-carboxylate]",significant blocking could not be achieved
